Assay results taken from the supplement of paper PMC6411743.
± gives the standard deviation of the averaged measurements. The list shows a part of the results.

Sequences of proteins named here, by UniProt entry; tags and fusion partners are left off. A change or cut given only in a name is not applied to a line headed by its entry.
UniProt Q9H6Q4: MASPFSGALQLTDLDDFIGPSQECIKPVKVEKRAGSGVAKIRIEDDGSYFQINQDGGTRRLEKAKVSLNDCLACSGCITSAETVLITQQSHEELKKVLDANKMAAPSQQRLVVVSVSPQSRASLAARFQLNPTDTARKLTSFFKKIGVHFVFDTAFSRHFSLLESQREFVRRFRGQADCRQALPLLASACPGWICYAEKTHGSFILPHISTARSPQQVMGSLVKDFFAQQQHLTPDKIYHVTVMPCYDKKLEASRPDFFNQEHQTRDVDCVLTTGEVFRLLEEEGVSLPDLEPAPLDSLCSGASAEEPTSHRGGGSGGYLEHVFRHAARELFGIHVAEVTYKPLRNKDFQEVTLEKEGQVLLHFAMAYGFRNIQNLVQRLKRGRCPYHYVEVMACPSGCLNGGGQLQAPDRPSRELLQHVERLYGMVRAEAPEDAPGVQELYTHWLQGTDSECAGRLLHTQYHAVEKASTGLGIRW
UniProt Q9BZQ6: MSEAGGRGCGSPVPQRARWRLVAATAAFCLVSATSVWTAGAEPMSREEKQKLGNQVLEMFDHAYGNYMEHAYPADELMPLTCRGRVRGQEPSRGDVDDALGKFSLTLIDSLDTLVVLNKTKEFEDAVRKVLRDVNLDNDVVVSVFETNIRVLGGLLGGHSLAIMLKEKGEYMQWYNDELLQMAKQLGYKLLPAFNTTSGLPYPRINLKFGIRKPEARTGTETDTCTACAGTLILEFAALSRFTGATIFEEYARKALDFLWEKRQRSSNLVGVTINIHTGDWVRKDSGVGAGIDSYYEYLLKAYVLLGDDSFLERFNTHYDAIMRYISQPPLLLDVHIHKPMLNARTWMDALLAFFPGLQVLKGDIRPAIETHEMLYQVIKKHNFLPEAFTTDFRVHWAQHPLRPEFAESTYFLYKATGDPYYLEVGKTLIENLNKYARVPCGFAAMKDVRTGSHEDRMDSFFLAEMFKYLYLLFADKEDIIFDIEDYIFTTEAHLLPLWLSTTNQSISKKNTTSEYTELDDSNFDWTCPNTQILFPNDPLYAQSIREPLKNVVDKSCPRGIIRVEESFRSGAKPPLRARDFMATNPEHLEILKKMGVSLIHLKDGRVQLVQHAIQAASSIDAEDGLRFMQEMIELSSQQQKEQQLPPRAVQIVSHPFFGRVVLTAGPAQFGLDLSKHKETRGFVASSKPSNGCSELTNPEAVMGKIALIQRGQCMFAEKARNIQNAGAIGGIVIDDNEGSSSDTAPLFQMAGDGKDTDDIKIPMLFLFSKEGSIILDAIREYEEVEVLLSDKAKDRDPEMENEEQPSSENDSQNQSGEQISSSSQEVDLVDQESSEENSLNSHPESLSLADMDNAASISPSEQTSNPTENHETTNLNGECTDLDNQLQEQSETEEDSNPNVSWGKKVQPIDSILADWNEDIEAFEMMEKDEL
UniProt Q9H7E9: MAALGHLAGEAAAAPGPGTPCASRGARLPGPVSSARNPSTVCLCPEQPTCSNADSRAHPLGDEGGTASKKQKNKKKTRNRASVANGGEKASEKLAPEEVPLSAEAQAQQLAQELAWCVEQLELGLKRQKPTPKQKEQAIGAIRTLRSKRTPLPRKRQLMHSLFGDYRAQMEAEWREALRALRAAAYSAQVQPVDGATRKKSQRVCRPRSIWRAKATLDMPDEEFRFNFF
UniProt Q9H8Y5: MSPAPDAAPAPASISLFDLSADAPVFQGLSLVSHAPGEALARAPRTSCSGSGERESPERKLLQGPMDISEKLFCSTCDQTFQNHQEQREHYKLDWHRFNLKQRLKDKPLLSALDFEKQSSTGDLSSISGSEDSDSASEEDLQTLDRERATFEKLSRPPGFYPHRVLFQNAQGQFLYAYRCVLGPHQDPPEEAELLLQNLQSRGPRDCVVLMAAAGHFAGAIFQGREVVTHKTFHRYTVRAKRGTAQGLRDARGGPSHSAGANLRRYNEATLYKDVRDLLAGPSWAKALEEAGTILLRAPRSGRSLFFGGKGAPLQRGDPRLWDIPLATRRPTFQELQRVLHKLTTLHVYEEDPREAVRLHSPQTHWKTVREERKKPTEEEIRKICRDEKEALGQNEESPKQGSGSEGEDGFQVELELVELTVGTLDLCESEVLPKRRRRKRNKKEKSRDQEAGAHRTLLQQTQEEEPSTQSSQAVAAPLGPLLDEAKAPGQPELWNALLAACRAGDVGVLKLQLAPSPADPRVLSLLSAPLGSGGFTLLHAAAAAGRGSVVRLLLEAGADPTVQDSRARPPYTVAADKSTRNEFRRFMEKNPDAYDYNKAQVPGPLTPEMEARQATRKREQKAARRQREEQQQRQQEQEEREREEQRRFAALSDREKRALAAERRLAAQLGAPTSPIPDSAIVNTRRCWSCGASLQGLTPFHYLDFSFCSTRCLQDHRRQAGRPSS
UniProt Q9H7Z3: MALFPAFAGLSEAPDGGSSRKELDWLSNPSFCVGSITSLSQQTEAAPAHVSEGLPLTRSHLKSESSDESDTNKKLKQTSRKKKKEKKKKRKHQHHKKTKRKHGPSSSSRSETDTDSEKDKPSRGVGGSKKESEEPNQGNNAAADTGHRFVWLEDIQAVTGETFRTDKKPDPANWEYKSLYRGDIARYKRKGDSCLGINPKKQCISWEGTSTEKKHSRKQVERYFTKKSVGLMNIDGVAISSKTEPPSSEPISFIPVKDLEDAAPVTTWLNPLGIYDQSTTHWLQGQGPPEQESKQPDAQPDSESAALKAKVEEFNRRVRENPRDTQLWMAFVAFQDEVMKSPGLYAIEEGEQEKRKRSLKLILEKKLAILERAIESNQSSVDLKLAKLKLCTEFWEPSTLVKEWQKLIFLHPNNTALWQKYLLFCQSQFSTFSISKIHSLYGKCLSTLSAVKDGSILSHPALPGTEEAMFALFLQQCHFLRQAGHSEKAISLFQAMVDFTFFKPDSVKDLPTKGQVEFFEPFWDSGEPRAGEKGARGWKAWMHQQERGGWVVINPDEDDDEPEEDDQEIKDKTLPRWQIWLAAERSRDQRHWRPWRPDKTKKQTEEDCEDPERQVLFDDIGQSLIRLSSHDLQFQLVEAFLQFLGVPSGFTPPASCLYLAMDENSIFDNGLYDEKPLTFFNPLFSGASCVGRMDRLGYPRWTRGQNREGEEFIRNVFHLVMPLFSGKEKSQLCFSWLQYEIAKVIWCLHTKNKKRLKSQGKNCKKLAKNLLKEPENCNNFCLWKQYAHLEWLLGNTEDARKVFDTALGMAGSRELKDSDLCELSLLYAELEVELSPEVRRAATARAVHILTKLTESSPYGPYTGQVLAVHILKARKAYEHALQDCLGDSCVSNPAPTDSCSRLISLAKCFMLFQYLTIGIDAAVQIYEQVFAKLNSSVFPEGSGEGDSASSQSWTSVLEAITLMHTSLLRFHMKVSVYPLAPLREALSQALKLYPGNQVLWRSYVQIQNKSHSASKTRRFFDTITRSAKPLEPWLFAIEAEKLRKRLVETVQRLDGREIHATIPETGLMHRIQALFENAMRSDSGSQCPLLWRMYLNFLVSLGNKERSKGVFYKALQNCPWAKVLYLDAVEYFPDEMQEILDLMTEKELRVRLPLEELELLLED
UniProt Q9NRB3: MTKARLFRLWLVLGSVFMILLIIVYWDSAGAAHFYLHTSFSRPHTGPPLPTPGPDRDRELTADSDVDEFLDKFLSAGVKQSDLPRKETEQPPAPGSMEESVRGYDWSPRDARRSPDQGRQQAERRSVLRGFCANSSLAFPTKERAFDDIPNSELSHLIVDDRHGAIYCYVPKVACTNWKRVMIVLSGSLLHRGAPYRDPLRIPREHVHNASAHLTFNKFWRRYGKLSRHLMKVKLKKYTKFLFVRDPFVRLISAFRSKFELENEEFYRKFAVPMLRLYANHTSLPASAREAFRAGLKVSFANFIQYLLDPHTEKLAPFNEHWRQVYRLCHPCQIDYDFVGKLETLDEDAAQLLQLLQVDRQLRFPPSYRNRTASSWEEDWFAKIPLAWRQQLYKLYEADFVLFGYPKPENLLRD
UniProt Q9HD42: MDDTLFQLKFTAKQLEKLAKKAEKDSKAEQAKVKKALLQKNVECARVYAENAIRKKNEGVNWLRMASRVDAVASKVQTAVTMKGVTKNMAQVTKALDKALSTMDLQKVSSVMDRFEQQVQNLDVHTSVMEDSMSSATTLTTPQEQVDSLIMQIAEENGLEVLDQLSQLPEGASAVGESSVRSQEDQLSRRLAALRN
UniProt Q9H6N6: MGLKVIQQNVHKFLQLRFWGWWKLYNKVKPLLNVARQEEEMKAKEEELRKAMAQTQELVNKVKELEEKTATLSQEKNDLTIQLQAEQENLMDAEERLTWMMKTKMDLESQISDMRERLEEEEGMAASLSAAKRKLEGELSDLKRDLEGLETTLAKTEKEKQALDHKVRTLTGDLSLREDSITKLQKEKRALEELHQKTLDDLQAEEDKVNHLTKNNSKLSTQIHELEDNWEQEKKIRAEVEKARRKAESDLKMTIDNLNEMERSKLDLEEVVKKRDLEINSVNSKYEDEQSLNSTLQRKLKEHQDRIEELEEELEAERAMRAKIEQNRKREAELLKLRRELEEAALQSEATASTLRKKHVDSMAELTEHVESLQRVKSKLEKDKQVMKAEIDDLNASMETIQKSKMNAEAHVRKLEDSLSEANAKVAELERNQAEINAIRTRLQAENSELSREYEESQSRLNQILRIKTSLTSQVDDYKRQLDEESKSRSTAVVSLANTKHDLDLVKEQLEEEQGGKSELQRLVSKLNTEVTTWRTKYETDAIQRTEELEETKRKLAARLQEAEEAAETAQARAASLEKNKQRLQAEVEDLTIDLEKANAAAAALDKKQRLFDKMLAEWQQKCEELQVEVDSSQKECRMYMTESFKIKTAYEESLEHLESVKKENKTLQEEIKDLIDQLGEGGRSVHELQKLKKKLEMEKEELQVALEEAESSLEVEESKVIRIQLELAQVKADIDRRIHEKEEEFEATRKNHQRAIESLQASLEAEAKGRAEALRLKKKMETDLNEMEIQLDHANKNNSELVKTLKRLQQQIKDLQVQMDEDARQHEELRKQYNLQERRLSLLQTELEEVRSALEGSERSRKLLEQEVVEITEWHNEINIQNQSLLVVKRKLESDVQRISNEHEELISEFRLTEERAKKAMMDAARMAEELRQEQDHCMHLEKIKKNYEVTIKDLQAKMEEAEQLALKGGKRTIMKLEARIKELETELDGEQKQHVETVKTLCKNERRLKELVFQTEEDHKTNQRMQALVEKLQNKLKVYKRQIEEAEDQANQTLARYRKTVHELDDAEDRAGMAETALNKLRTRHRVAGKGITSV
UniProt Q9H3Z4: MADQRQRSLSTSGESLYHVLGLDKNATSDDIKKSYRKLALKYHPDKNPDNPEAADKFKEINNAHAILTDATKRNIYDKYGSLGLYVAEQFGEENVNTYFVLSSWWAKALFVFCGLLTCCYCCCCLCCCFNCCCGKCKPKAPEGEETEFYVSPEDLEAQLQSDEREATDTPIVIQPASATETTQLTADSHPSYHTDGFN
UniProt Q9H501: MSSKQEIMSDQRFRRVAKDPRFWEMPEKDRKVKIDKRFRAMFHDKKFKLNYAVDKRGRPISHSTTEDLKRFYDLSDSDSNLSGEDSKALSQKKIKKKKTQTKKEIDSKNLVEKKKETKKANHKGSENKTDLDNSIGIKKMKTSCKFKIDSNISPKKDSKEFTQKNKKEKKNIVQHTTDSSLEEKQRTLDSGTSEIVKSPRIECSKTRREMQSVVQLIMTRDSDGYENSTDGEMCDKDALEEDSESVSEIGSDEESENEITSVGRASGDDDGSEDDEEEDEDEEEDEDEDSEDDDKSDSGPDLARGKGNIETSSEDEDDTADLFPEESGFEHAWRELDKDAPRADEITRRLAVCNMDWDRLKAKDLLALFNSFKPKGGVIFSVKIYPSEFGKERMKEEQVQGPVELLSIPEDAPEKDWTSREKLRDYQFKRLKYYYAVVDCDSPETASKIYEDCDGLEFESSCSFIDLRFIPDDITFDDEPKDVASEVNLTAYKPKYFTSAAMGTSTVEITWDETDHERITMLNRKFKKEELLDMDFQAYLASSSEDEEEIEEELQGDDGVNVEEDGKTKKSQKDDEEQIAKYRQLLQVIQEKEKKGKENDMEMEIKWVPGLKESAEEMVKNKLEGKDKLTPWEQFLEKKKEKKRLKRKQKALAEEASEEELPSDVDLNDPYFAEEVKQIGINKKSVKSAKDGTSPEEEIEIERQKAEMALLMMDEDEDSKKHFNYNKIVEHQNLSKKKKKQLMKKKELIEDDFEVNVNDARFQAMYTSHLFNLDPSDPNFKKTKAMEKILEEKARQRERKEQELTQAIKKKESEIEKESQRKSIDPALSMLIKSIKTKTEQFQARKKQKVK

Compound: Nc1nc2c(ncn2[C@@H]2O[C@H](COP(=O)(O)OP(=O)(O)OP(=O)(O)O)[C@@H](O)[C@H]2O)c(=O)[nH]1 [guanosine triphosphate]
Assay: NP40-soluble protein abundance relative to vehicle (solubility fold change) (ratio); higher = more soluble protein in presence of GTP
Procedure, shortened: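 Across three independent experiments, values are fold changes against the detergent-processed vehicle for each replicate, based on vsn-normalised intensities. The samples were Jurkat crude lysate treated with eight concentrations (0.1 to 10 mM) for 10 min at room temperature and then 3 min at 37 °C. Lysate was solubilised with 0.8% NP40 and benzonase, ultracentrifuged, and the supernatant analysed by TMT-labelled LC-MS/MS.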

Target	NP40-soluble protein abundance (concentration: 0.1mM)	NP40-soluble protein abundance (concentration: 0.5mM)	NP40-soluble protein abundance (concentration: 1mM)	NP40-soluble protein abundance (concentration: 2mM)	NP40-soluble protein abundance (concentration: 4mM)	NP40-soluble protein abundance (concentration: 6mM)	NP40-soluble protein abundance (concentration: 8mM)	NP40-soluble protein abundance (concentration: 10mM)
UniProt Q9H6Q4 and related entries	0.99 ± 0.07	1.03 ± 0.051	1.01 ± 0.067	0.976 ± 0.044	0.991 ± 0.059	0.94 ± 0.022	0.933 ± 0.042	0.931 ± 0.066
VPS33B (UniProt Q9H267)	1.04 ± 0.031	1.09 ± 0.072	0.959 ± 0.0098	0.961 ± 0.058	0.964 ± 0.042	0.923 ± 0.048	0.907 ± 0.019	0.868 ± 0.033
UniProt Q9H7F0 and related entries	1.19 ± 0.081	1.11 ± 0.073	1.13 ± 0.042	1.07 ± 0.07	1.069 ± 0.0085	0.984 ± 0.078	1.14 ± 0.072	1.01 ± 0.12
UniProt Q9H7E2-3|Q9H7E2 and related entries	1.07 ± 0.085	1 ± 0.082	1.07 ± 0.047	1.07 ± 0.05	1.05 ± 0.023	1.07 ± 0.028	1.14 ± 0.045	1.19 ± 0.023
UniProt Q9BZQ6 and related entries	0.984 ± 0.026	1 ± 0.022	0.976 ± 0.047	0.942 ± 0.06	0.949 ± 0.049	0.953 ± 0.044	0.939 ± 0.032	0.921 ± 0.011
UniProt Q9H7E9 and related entries	0.991 ± 0.12	1.02 ± 0.13	1 ± 0.043	1.07 ± 0.06	0.975 ± 0.036	1.03 ± 0.07	1.17 ± 0.23	1.17 ± 0.18
LRRC40 (UniProt Q9H9A6)	0.983 ± 0.024	1 ± 0.035	0.944 ± 0.033	0.945 ± 0.052	0.935 ± 0.042	0.908 ± 0.046	0.894 ± 0.035	0.897 ± 0.067
UniProt Q9HD26 and related entries	0.942 ± 0.059	0.935 ± 0.063	0.926 ± 0.036	0.923 ± 0.066	0.922 ± 0.038	0.922 ± 0.076	0.902 ± 0.072	0.881 ± 0.049
UniProt Q9H5V9 and related entries	0.962 ± 0.014	0.9579 ± 0.0087	0.969 ± 0.056	0.945 ± 0.075	0.956 ± 0.078	1.01 ± 0.075	1.011 ± 0.0095	1.02 ± 0.081
UniProt Q9NPQ8 and related entries	1.03 ± 0.034	0.996 ± 0.029	1 ± 0.03	0.974 ± 0.057	0.9203 ± 0.0087	0.935 ± 0.036	0.925 ± 0.016	0.912 ± 0.021
ANKZF1 (UniProt Q9H8Y5)	1.03 ± 0.069	1.04 ± 0.072	1.01 ± 0.032	0.987 ± 0.12	0.979 ± 0.062	0.988 ± 0.092	1.05 ± 0.063	1.03 ± 0.077
UniProt Q9H871	1.12 ± 0.07	1.09 ± 0.058	1.11 ± 0.11	1.17 ± 0.15	1.18 ± 0.14	1.14 ± 0.17	1.18 ± 0.19	1.14 ± 0.14
UniProt Q9HBE1 and related entries	1.08 ± 0.088	1.07 ± 0.072	1.18 ± 0.059	1.2 ± 0.021	1.31 ± 0.06	1.26 ± 0.063	1.38 ± 0.1	1.45 ± 0.029
NUCKS1 (UniProt Q9H1E3)	0.807 ± 0.074	0.811 ± 0.022	0.996 ± 0.14	0.841 ± 0.063	0.747 ± 0.077	0.763 ± 0.072	0.758 ± 0.098	0.812 ± 0.094
UniProt Q9H7Z3	1.08 ± 0.076	1.17 ± 0.024	1.03 ± 0.032	1.13 ± 0.054	1.23 ± 0.12	1.254 ± 0.0074	1.21 ± 0.045	1.15 ± 0.049
UniProt Q9NQS7 and related entries	1.16 ± 0.11	1.2 ± 0.24	1.31 ± 0.089	1.28 ± 0.14	1.49 ± 0.21	1.6 ± 0.17	1.72 ± 0.11	1.97 ± 0.29
NMRAL1 (UniProt Q9HBL8)	1.02 ± 0.033	0.953 ± 0.02	0.902 ± 0.027	0.901 ± 0.051	0.859 ± 0.068	0.86 ± 0.019	0.858 ± 0.031	0.845 ± 0.063
CHST12 (UniProt Q9NRB3)	0.828 ± 0.048	0.941 ± 0.19	0.827 ± 0.12	0.88 ± 0.13	0.819 ± 0.014	0.891 ± 0.066	0.975 ± 0.022	0.813 ± 0.075
UniProt Q9C0I1 and related entries	1.06 ± 0.052	1.04 ± 0.098	0.989 ± 0.18	0.984 ± 0.08	1.07 ± 0.082	0.96 ± 0.089	0.973 ± 0.025	0.934 ± 0.022
RMI1 (UniProt Q9H9A7)	1.06 ± 0.036	1.06 ± 0.049	1.03 ± 0.055	1 ± 0.017	1.05 ± 0.1	0.995 ± 0.07	1.03 ± 0.036	1.01 ± 0.089
UniProt Q9H008 and related entries	0.971 ± 0.017	0.957 ± 0.032	0.93 ± 0.075	0.934 ± 0.036	0.89 ± 0.052	0.925 ± 0.058	0.86 ± 0.062	0.849 ± 0.07
ACTR5 (UniProt Q9H9F9)	0.9 ± 0.13	1.04 ± 0.074	1.07 ± 0.03	1.13 ± 0.031	1.14 ± 0.093	1.18 ± 0.15	1.17 ± 0.1	1.25 ± 0.2
UniProt Q9NP72 and related entries	1 ± 0.028	1 ± 0.012	0.907 ± 0.041	0.893 ± 0.039	0.878 ± 0.075	0.888 ± 0.062	0.85 ± 0.096	0.845 ± 0.1
CHMP1A (UniProt Q9HD42)	0.875 ± 0.065	0.774 ± 0.071	1.03 ± 0.08	0.993 ± 0.037	0.999 ± 0.033	0.961 ± 0.06	0.942 ± 0.13	1.01 ± 0.03
MYH16 (UniProt Q9H6N6)	0.98 ± 0.019	0.959 ± 0.032	1.02 ± 0.013	0.963 ± 0.049	0.987 ± 0.074	0.994 ± 0.074	1.08 ± 0.18	0.99 ± 0.14
UniProt Q9HD45 and related entries	1.01 ± 0.05	1.05 ± 0.092	0.924 ± 0.022	0.961 ± 0.051	0.941 ± 0.013	0.915 ± 0.03	0.906 ± 0.053	0.903 ± 0.069
ARFGAP3 (UniProt Q9NP61)	0.952 ± 0.057	0.929 ± 0.056	0.934 ± 0.092	0.899 ± 0.12	0.885 ± 0.1	0.903 ± 0.12	0.905 ± 0.076	0.916 ± 0.1
UniProt Q9H3Z4 and related entries	0.93 ± 0.049	0.939 ± 0.062	0.906 ± 0.049	0.914 ± 0.1	0.926 ± 0.047	0.907 ± 0.045	0.883 ± 0.037	0.878 ± 0.089
ESF1 (UniProt Q9H501)	0.981 ± 0.085	0.968 ± 0.045	1.01 ± 0.05	0.987 ± 0.071	1.01 ± 0.081	1.02 ± 0.065	1.06 ± 0.079	1.07 ± 0.069
UniProt Q9HC36	0.949 ± 0.043	1.05 ± 0.049	1.06 ± 0.061	1.21 ± 0.097	1.39 ± 0.15	1.52 ± 0.18	1.55 ± 0.18	1.62 ± 0.18

Complete entries from above:
UniProt Q9H7E9 and related entries reads NP40-soluble protein abundance (concentration: 0.1mM): 0.991 ± 0.12; NP40-soluble protein abundance (concentration: 0.5mM): 1.02 ± 0.13; NP40-soluble protein abundance (concentration: 1mM): 1 ± 0.043; NP40-soluble protein abundance (concentration: 2mM): 1.07 ± 0.06; NP40-soluble protein abundance (concentration: 4mM): 0.975 ± 0.036; NP40-soluble protein abundance (concentration: 6mM): 1.03 ± 0.07; NP40-soluble protein abundance (concentration: 8mM): 1.17 ± 0.23; NP40-soluble protein abundance (concentration: 10mM): 1.17 ± 0.18
VPS33B (UniProt Q9H267) reads NP40-soluble protein abundance (concentration: 0.1mM): 1.04 ± 0.031; NP40-soluble protein abundance (concentration: 0.5mM): 1.09 ± 0.072; NP40-soluble protein abundance (concentration: 1mM): 0.959 ± 0.0098; NP40-soluble protein abundance (concentration: 2mM): 0.961 ± 0.058; NP40-soluble protein abundance (concentration: 4mM): 0.964 ± 0.042; NP40-soluble protein abundance (concentration: 6mM): 0.923 ± 0.048; NP40-soluble protein abundance (concentration: 8mM): 0.907 ± 0.019; NP40-soluble protein abundance (concentration: 10mM): 0.868 ± 0.033
